Experimental findings from ChEMBL document CHEMBL1147268, “New triterpene glycosides from the stems of Anomospermum grandifolium” (2003) are described below.

For this assay, the system named is Staphylococcus aureus. The assay is described as follows: Antibacterial activity against Staphylococcus aureus ATCC 25923 after 18 hrs by broth microdilution method. It counts as functional. The following applies: ATCC 25923, 18 h.

Structures are written as SMILES. ≈ marks a conversion by molar mass, not a printed value.

By MIC is commonly meant the least concentration at which growth counts as inhibited.

In turn, `CC1(C)S[C@@H]2[C@H](NC(=O)[C@H](N)c3ccccc3)C(=O)N2[C@H]1C(=O)O` [AMPICILLIN] returned an MIC of 0.5 µg/mL (≈ 1.43 µM).
